No constants are given. Whether binding was seen depends on the method and setting. In cells and extracts the contact can be indirect. These calls come from enrichment with a bait or labelling near it, and not all partners need be listed.
Target: phosphorylated Protein kinase Cα (human (endogenous in platelets)) (UniProt P17252)
Assay: affinity purification with mass spectrometry; immunoprecipitation with an anti-p-PKCα antibody from platelet membrane proteins of breast cancer and benign patients, isotypic IgG as negative control; SDS-PAGE, silver staining, differential bands excised and analysed by mass spectrometry; the named hits are among the proteins detected only in breast cancer platelets

binding	Binder
binds	EXOC3L4 (protein, UniProt Q17RC7 1-722) MPSPQTDTPGPELQSPKEAEEPQTPAQGSRRTSSRKEPNAHRKDGTRLGLGSLRQAFSRASQRALTQVSKEDTGLFRRSSCSLFRSFRQALNDGPATGHSQATPEVPSGVMNGVSQQASTGAASEELKPEAEGKSVADLITERQLLAAFEQLLRLETLLVAEKASRTFEQDPTAFARRAMDVCLLYDGLAAEIGAIVRETLDSDGVDAAALAELARVVSAEEEAHPSPPDDGDFLRTPRRWRQHWEEAVRRSAQERVRRPGAGWAFGEAEGASGLAQLLAELGGLVRRDLQKVRQEVQPAYAAAGFPAWEVYLRAFHSAVAQRLQELARDARGCEQLYILLDWAANVYGSPDFLGAPGLALPAEPLPPLLAPDVWARLESDYTSFLEAKIASCFDSILQLEQSHWAAAEVPEVLQGLYQAPLSMDVHMLVAEHVKAAGAISAELEATTLRICTRALGLFVPRFEKAFLASEAVSEPHLGAYINACEELRTSLLSRFPGTQEELEKPLVTATCSFQKHLLQGLQRELQPLFRVVCTRDWLTQDWLHPLMDKVVTFAGHLQRVARPRAQETLQEVHRFVVREYLARALRPRERFRGMERMHGSQKMSLDAQAISDTFQGLGSEATWLDQAIQCVAEILGETYKDDIQRHLETLIRSYPDIRRDHILAILALRRLGRQRNQHLLQHTQDLLRAAAGAAGAEAPRGRVLFEEIKVPSAMAVLITCV
binds	Sec31A (protein, UniProt O94979 1-1220) MKLKEVDRTAMQAWSPAQNHPIYLATGTSAQQLDATFSTNASLEIFELDLSDPSLDMKSCATFSSSHRYHKLIWGPYKMDSKGDVSGVLIAGGENGNIILYDPSKIIAGDKEVVIAQNDKHTGPVRALDVNIFQTNLVASGANESEIYIWDLNNFATPMTPGAKTQPPEDISCIAWNRQVQHILASASPSGRATVWDLRKNEPIIKVSDHSNRMHCSGLAWHPDVATQMVLASEDDRLPVIQMWDLRFASSPLRVLENHARGILAIAWSMADPELLLSCGKDAKILCSNPNTGEVLYELPTNTQWCFDIQWCPRNPAVLSAASFDGRISVYSIMGGSTDGLRQKQVDKLSSSFGNLDPFGTGQPLPPLQIPQQTAQHSIVLPLKKPPKWIRRPVGASFSFGGKLVTFENVRMPSHQGAEQQQQQHHVFISQVVTEKEFLSRSDQLQQAVQSQGFINYCQKKIDASQTEFEKNVWSFLKVNFEDDSRGKYLELLGYRKEDLGKKIALALNKVDGANVALKDSDQVAQSDGEESPAAEEQLLGEHIKEEKEESEFLPSSGGTFNISVSGDIDGLITQALLTGNFESAVDLCLHDNRMADAIILAIAGGQELLARTQKKYFAKSQSKITRLITAVVMKNWKEIVESCDLKNWREALAAVLTYAKPDEFSALCDLLGTRLENEGDSLLQTQACLCYICAGNVEKLVACWTKAQDGSHPLSLQDLIEKVVILRKAVQLTQAMDTSTVGVLLAAKMSQYANLLAAQGSIAAALAFLPDNTNQPNIMQLRDRLCRAQGEPVAGHESPKIPYEKQQLPKGRPGPVAGHHQMPRVQTQQYYPHGENPPPPGFIMHGNVNPNAAGQLPTSPGHMHTQVPPYPQPQPYQPAQPYPFGTGGSAMYRPQQPVAPPTSNAYPNTPYISSASSYTGQSQLYAAQHQASSPTSSPATSFPPPPSSGASFQHGGPGAPPSSSAYALPPGTTGTLPAASELPASQRTGPQNGWNDPPALNRVPKKKKMPENFMPPVPITSPIMNPLGDPQSQMLQQQPSAPVPLSSQSSFPQPHLPGGQPFHGVQQPLGQTGMPPSFSKPNIEGAPGAPIGNTFQHVQSLPTKKITKKPIPDEHLILKTTFEDLIQRCLSSATDPQTKRKLDDASKRLEFLYDKLREQTLSPTITSGLHNIARSIETRNYSEGLTMHTHIVSTSNFSETSAFMPVLKVVLTQANKLGV

— PMC11302887
